Reference: patent US9987296B2, “Compositions including anthocyanin or anthocyanidin for the prevention or treatment of Articular cartilage-associated conditions” (priority 2008, dated 2018)
Some entries share one result that the patent states for a list of compounds.

Tests used:
[1] = system: Human articular chondrocytes; experiment: MTT assay; type: cell-based; conditions: human articular chondrocytes in culture, 96 hours
Description: (§1) Chondrocytes were isolated from non-arthritic regions of adult human articular cartilage (N=3 donors) and expanded in tissue culture flasks in DMEM supplemented with 10% calf serum.
The following compounds were provided by Chromadex, Inc. and tested from 1 uM to 500 uM:
Human articular chondrocytes were seeded in 96-well culture trays at a density of 5000 cells/well and incubated with the selected concentration of the anthocyanin for 4 days. At the end of the 4 day period, fresh MTT (3(4,5-Dimethylthiazol-2-yl)-2,5-diphenyltetrazolium bromide) was made in PBS and filter sterilized. MTT (25 ul per well) was added to the cell culture and incubated for 5 hours in the CO2 incubator at 37° C. Yellow MIT is reduced to purple formazan in living cells. The supernatant from each well was removed, and 200 Ill of DMSO was added. A multi-channel pipette was used to dissolve crystals. The microplate was placed back into the incubator at 37° C. for 5 min. Formazan levels in each well were read using a spectrophotometer at 550 nm wavelength.

[2] = system: Human articular chondrocytes; experiment: Cell viability (calcein AM / ethidium homodimer staining); type: cell-based; conditions: human articular chondrocytes in culture, 96 hours
From the text: as §1
At higher concentrations, the color of the anthocyanin interfered with the spectrophotometer reading; therefore, cell viability was additionally measured with calcein staining as follows: Live and dead cells were simultaneously viewed in situ with a confocal microscope (LSM 510; Zeiss, Wetzlar, Germany), using a fluorescent double stain. Calcein AM (1 uM; Invitrogen, Carlsbad, Calif.), a fluorescein derivative that is metabolized by nonspecific esterase present in viable cells, was used to stain live cells. The use of 8 uM ethidium homodimer (Invitrogen), a nucleic acid stain that is excluded by intact cell membranes, enabled visualization of the nuclei of dead cells. After 96-hour exposure to the appropriate concentration of anthocyanins, chondrocytes were cultured in DMEM supplemented with Calcein AM and ethidium homodimer for 45 minutes. Live and dead cells were counted using an automated image analysis script written in Matlab (MathWorks, Natick, Mass.) to measure percentage cell viability.

For `Oc1cc(O)c2cc(O)c(-c3ccc(O)c(O)c3)[o+]c2c1` [Cyanidin chloride], the non-toxic concentration [1] was “up to 100 uM”, the non-toxic concentration ([1]; listed as cyanidin chloride) was “up to 100 uM” and the “concentration inducing cell death / some toxicity” value [2] was at least 200 µM.
For `OC[C@H]1O[C@@H](Oc2cc3c(O)cc(O)cc3[o+]c2-c2ccc(O)c(O)c2)[C@H](O)[C@@H](O)[C@@H]1O.[Cl-]` [Kuromanin chloride], the non-toxic concentration [1] was “up to 100 uM”, the non-toxic concentration ([1]; listed as kuromanin chloride) was “up to 100 uM” and the “concentration inducing cell death / some toxicity” value [2] was at least 200 µM.
